The results in this text go back to the supplement of paper PMC8426693.

Holding throughout (details): RNA concentration 10 µM; fragment concentration 200 µM; 293 K
The subject of one assay is SARS-CoV-2 5_SL5stem RNA. The assay is described as follows: waterLOGSY factor (bound vs free ligand) (ratio); higher = stronger binding.
A further assay relates to SARS-CoV-2 3'-UTR RNA. Briefly: T2 signal reduction relative to ligand without RNA (fraction); higher = stronger binding.
In another assay the test system is SARS-CoV-2 5_SL8 RNA. The assay is described as follows: waterLOGSY factor (bound vs free ligand) (ratio); higher = stronger binding.
For assay [1], the system named is SARS-CoV-2 frameshift pseudoknot (PK) RNA. The description is as above.
The test system of the next assay is SARS-CoV-2 3_SL1+2 RNA. Briefly: T2 signal reduction relative to ligand without RNA (fraction); higher = stronger binding.
The test system of a further assay is SARS-CoV-2 5_SL7 RNA. Briefly: waterLOGSY factor (bound vs free ligand) (ratio); higher = stronger binding.
The next assay deals with SARS-CoV-2 5_SL6 RNA. The description is as above.
A further assay relates to SARS-CoV-2 3_SL2 RNA. The assay is described as follows: T2 signal reduction relative to ligand without RNA (fraction); higher = stronger binding.
Another assay concerns SARS-CoV-2 3_SL1 RNA. Described as above.
Assay [2] relates to SARS-CoV-2 attenuator hairpin (att HP) RNA. Briefly: waterLOGSY factor (bound vs free ligand) (ratio); higher = stronger binding.

The structures appear in SMILES notation. The list shows a part of the results. Most values come without repeats; read them as rough.

For `Cc1cccc(NC(=O)Nc2nc(C)cs2)c1`, the waterLOGSY factor in the assay on SARS-CoV-2 5_SL5stem RNA amounted to 2.13. In addition, the T2 signal reduction in the assay on SARS-CoV-2 3'-UTR RNA is 0.69.

As for `Cc1occc1C(=O)Nc1ccncc1`, the waterLOGSY factor was 0.92 in the assay with SARS-CoV-2 5_SL5stem RNA, 0.293 with SARS-CoV-2 5_SL8 RNA and 1.95 in [1]. Moreover, the T2 signal reduction was determined as 0.4 in the assay with SARS-CoV-2 3'-UTR RNA and 0.48 in the assay on SARS-CoV-2 3_SL1+2 RNA.

Turning to `CNC(=O)Nc1nc2ccc(OC)cc2s1`, the waterLOGSY factor in the assay on SARS-CoV-2 5_SL7 RNA stood at 0.477; in [1], 1.47.

Consider `CNC(=O)c1ccccc1NC(=O)c1ccco1`, for which the waterLOGSY factor with SARS-CoV-2 5_SL6 RNA is 0.619; with SARS-CoV-2 5_SL8 RNA it was 1.1. In the assay with SARS-CoV-2 3'-UTR RNA, this compound showed a T2 signal reduction of 0.59.

In the assay with SARS-CoV-2 3_SL1+2 RNA, `CNCc1ccc(C(F)(F)F)cc1` gave a T2 signal reduction of 0.31.

`c1coc(CNc2nc3ccccc3[nH]2)c1` registered a T2 signal reduction in the assay with SARS-CoV-2 3_SL1+2 RNA of 0.37.

In the case of `O=C(Nc1ccon1)c1cccc(Cl)c1`, in the assay on SARS-CoV-2 5_SL5stem RNA, the waterLOGSY factor was 1.22. This compound displayed a T2 signal reduction with SARS-CoV-2 3'-UTR RNA of 0.51.

As for `Cc1nccc(N2CCC(N)CC2)n1`, in [1], the waterLOGSY factor was determined as 1.88. Moreover, the T2 signal reduction was 0.1 in the assay with SARS-CoV-2 3'-UTR RNA, 0.45 with SARS-CoV-2 3_SL1+2 RNA and 0.24 in the assay on SARS-CoV-2 3_SL2 RNA.

Consider `c1nc(N2CCC2)c2[nH]cnc2n1`, for which the T2 signal reduction in the assay on SARS-CoV-2 3'-UTR RNA is 0.42.

With `COC(=O)Nc1nc2c(C)cccc2s1`, in the assay on SARS-CoV-2 3_SL1 RNA, the T2 signal reduction was 0.62.

For the compound `CN1CCN(c2ccc(C#N)cc2)CC1`, the waterLOGSY factor in the assay on SARS-CoV-2 5_SL7 RNA was 1.52. Moreover, the T2 signal reduction in the assay with SARS-CoV-2 3'-UTR RNA came out at 0.28.

Turning to `CCN(C)C(=O)c1cccc(N)c1`, the waterLOGSY factor in the assay on SARS-CoV-2 5_SL8 RNA amounted to 1.14.

Regarding `OCc1cn(-c2ccc(Cl)c(Cl)c2)nn1`, the waterLOGSY factor in the assay with SARS-CoV-2 5_SL6 RNA was 4.33; in the assay on SARS-CoV-2 5_SL7 RNA, 7.23; with SARS-CoV-2 5_SL8 RNA, 3.21; in assay [2], 1.69; in [1] it was 2.54. In addition, the T2 signal reduction stood at 0.67 in the assay on SARS-CoV-2 3'-UTR RNA, 0.34 in the assay on SARS-CoV-2 3_SL1 RNA, 0.63 in the assay on SARS-CoV-2 3_SL1+2 RNA and 0.64 with SARS-CoV-2 3_SL2 RNA.

For `CN(C)c1ccc(C(=O)Nc2ccncc2)cc1`, the values for the waterLOGSY factor in the assay on SARS-CoV-2 5_SL7 RNA and in the assay with SARS-CoV-2 5_SL8 RNA were 1.21 and 67.6, respectively. Besides, the T2 signal reduction in the assay with SARS-CoV-2 3_SL1 RNA and in the assay on SARS-CoV-2 3_SL2 RNA was 1 throughout.

With `Nc1nccc(-c2ccc(Cl)cc2)n1`, the waterLOGSY factor in assay [1] was found to be 3.92. Moreover, the T2 signal reduction in the assay with SARS-CoV-2 3'-UTR RNA was determined as 0.67; in the assay with SARS-CoV-2 3_SL2 RNA it was 0.21.

As for `c1ccc(-c2ccc(-n3cnnn3)cc2)cc1`, the waterLOGSY factor in the assay on SARS-CoV-2 5_SL6 RNA was 7.53; with SARS-CoV-2 5_SL7 RNA it was 7.1; in assay [1], 4.53.

Take `c1ccc(NCC2CCNC2)nc1` (centres undefined): the waterLOGSY factor in the assay with SARS-CoV-2 5_SL7 RNA was 0.897; in assay [1] it was 2.48.

Consider `NC(=O)c1ccnc(NC2CC=CC2)c1`, for which the T2 signal reduction with SARS-CoV-2 3'-UTR RNA stood at 0.14; with SARS-CoV-2 3_SL1+2 RNA, 0.34.

Take `O=C(Nc1ccc2ncccc2c1)c1ccccc1`: in the assay with SARS-CoV-2 5_SL8 RNA, the waterLOGSY factor came out at 0.742. The compound further showed a T2 signal reduction in the assay with SARS-CoV-2 3'-UTR RNA of 0.51.

Take `Cc1ccc(-c2noc(CNC(C)C)n2)cc1`: the waterLOGSY factor with SARS-CoV-2 5_SL7 RNA was 0.746. The T2 signal reduction in the assay on SARS-CoV-2 3'-UTR RNA is 0.39.

As for `CCNC1CCN(c2ccncc2)CC1`, the waterLOGSY factor in the assay on SARS-CoV-2 5_SL7 RNA was 1.34; in [1], 2.71. Moreover, the T2 signal reduction with SARS-CoV-2 3'-UTR RNA amounted to 0.4; with SARS-CoV-2 3_SL1 RNA, 0.41; in the assay with SARS-CoV-2 3_SL1+2 RNA, 0.67; with SARS-CoV-2 3_SL2 RNA it was 0.31.

For the compound `CC(=O)c1ccc(NC(=O)CN2CCCC2)cc1`, the waterLOGSY factor came to 0.828 in the assay on SARS-CoV-2 5_SL7 RNA and 1.5 in [1]. For the same compound, the T2 signal reduction is 0.52 with SARS-CoV-2 3'-UTR RNA, 0.34 in the assay with SARS-CoV-2 3_SL1+2 RNA and 0.22 in the assay on SARS-CoV-2 3_SL2 RNA.

For `COc1ccc2[nH]cc(CN(C)C)c2c1`, the waterLOGSY factor in the assay on SARS-CoV-2 5_SL7 RNA is 0.787.

As to `Cl.NCc1cc(-c2ccccc2)no1`, the waterLOGSY factor with SARS-CoV-2 5_SL7 RNA came out at 1.59. Further, in the assay with SARS-CoV-2 3'-UTR RNA, the T2 signal reduction was determined as 0.32.

On to `NC(=O)c1cc(N2CCCC2)ccn1`, for which, in the assay with SARS-CoV-2 5_SL7 RNA, the waterLOGSY factor was found to be 0.85. Further, the T2 signal reduction is 0.58 in the assay with SARS-CoV-2 3'-UTR RNA and 0.41 in the assay on SARS-CoV-2 3_SL1+2 RNA.

For the compound `O=C(NO)c1ccc2ccccc2n1`, in the assay with SARS-CoV-2 5_SL5stem RNA, the waterLOGSY factor was 0.04.

For the compound `Cc1ccccc1OCC(=O)Nc1ccccc1`, in assay [1], the waterLOGSY factor amounted to 2.82. The T2 signal reduction in the assay with SARS-CoV-2 3'-UTR RNA stood at 0.3.

As for `c1cc(-c2ccc3c(c2)OCO3)n[nH]1`, in the assay on SARS-CoV-2 5_SL8 RNA, the waterLOGSY factor is 0.574. This compound also came in with a T2 signal reduction with SARS-CoV-2 3'-UTR RNA of 0.51.
